Publication PMC6283877
Results are given in words; binding and its absence hold for the method and conditions named. In cells and extracts the contact can be indirect. Some entries that bind do so weakly or less than the wild type. For part of these data: Sequences can lack the tags named with a protein.

Sequences of proteins named here, by UniProt entry; tags and fusion partners are left off. A change or cut given only in a name is not applied to a line headed by its entry. A line that says so, or that is headed by a name, gives the form on record, which may keep a tag or linker.
UniProt O00327: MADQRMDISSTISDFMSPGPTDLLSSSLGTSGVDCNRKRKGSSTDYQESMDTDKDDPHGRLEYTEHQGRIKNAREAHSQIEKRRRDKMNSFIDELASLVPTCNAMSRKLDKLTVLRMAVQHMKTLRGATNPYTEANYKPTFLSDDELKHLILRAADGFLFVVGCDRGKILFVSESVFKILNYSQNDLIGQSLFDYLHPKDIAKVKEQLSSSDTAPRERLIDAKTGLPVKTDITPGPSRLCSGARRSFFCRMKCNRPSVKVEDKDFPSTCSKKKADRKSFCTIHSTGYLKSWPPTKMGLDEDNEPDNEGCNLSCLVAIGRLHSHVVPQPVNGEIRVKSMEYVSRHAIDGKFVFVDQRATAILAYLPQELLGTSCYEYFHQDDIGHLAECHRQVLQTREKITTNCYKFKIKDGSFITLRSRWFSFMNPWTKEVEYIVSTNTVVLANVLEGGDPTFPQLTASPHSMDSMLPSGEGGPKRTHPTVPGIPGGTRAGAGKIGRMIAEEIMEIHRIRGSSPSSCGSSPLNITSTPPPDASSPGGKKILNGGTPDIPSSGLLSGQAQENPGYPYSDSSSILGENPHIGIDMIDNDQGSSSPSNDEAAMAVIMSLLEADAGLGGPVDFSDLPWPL
Myc-tagged hBMAL1a (O00327-1, form named): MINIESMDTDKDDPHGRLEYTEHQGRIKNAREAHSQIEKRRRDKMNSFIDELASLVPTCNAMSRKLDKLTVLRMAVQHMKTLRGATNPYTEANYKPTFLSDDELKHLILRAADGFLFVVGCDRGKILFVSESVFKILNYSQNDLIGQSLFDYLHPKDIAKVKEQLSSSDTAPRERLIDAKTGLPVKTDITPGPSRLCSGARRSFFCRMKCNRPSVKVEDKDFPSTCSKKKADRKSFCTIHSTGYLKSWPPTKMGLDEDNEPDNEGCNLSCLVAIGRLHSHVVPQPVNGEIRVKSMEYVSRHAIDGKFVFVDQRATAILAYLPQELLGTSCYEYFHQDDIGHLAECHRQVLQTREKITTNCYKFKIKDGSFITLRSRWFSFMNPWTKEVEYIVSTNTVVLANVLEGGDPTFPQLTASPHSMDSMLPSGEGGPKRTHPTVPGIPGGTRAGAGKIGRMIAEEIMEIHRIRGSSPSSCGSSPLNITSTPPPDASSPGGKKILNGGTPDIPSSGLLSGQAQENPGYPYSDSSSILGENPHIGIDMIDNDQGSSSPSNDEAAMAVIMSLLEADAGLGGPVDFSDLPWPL

Tests used:
[1] = target: T1, endogenous hCLOCK (human (endogenous in HeLa)) (UniProt O15516); assay: co-IP; immunoprecipitation from HeLa lysates: Myc-tagged hBMAL1b as bait, endogenous hCLOCK on the blot, with increasing co-expression of Flag-tagged hBMAL1a; IP buffer 50 mM HEPES pH 7.4, 150 mM NaCl, 1% NP-40, 0.5% Na-deoxycholate, 4 °C
T1 sequence: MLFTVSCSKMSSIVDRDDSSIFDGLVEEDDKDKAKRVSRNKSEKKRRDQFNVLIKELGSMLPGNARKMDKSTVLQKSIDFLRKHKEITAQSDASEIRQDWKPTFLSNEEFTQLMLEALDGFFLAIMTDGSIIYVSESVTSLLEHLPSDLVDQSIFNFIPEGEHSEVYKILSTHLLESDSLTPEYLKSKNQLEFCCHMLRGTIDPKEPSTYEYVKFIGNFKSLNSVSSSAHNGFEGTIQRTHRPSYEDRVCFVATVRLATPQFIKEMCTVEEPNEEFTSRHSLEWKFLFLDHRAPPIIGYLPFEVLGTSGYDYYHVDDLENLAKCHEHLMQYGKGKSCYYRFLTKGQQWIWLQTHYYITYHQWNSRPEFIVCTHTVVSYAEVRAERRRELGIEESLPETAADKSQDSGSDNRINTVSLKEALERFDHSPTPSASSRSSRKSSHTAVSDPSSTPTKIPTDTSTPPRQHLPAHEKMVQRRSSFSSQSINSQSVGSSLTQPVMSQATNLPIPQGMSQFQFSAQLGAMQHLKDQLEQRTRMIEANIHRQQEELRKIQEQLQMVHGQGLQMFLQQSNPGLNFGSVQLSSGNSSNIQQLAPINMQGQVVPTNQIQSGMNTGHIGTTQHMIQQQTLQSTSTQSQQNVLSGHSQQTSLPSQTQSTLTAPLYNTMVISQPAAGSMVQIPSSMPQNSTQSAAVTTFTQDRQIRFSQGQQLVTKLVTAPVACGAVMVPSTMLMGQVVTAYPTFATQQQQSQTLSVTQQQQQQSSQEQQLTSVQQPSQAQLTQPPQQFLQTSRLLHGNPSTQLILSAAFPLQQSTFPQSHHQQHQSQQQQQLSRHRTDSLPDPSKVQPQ

[2] = target: T2, C-terminal CFP (CC)-tagged hCLOCK (human) (UniProt O15516); assay: split reporter; dual-colour BiFC in HeLa cells: CN-hBmal1b and CC-hClock co-transfected with increasing amounts of YN-hBmal1a; CFP and YFP signals read 24 h after transfection
T2 sequence: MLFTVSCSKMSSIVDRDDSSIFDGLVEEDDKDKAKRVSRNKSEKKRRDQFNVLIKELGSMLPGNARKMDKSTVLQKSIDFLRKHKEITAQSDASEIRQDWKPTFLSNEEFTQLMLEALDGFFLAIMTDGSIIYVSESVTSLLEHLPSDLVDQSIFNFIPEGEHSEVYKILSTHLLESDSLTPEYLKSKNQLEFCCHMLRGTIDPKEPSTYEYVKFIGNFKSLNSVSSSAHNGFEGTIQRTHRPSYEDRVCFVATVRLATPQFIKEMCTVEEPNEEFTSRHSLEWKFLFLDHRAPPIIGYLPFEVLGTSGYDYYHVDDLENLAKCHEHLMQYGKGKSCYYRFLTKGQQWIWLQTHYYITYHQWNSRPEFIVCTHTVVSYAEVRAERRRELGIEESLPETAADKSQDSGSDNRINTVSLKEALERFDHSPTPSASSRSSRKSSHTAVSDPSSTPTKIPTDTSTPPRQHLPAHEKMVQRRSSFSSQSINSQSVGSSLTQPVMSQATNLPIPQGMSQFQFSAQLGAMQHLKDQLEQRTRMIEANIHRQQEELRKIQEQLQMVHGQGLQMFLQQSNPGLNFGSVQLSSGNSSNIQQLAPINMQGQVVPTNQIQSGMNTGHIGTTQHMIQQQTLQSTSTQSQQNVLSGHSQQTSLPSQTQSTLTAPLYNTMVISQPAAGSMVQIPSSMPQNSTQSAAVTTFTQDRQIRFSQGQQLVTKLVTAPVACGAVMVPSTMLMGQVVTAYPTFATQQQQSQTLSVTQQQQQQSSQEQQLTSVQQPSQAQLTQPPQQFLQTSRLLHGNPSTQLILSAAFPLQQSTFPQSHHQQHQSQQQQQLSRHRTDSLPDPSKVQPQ

[3] = target: T3, YFP N-terminus (YN)-tagged hCLOCK (human) (UniProt O15516); assay: split reporter; BiFC with YN (YFP 1-173) and YC (YFP 173-238) fusions co-transfected into HeLa cells; fixed 24 h after transfection; confocal microscopy
T3 sequence: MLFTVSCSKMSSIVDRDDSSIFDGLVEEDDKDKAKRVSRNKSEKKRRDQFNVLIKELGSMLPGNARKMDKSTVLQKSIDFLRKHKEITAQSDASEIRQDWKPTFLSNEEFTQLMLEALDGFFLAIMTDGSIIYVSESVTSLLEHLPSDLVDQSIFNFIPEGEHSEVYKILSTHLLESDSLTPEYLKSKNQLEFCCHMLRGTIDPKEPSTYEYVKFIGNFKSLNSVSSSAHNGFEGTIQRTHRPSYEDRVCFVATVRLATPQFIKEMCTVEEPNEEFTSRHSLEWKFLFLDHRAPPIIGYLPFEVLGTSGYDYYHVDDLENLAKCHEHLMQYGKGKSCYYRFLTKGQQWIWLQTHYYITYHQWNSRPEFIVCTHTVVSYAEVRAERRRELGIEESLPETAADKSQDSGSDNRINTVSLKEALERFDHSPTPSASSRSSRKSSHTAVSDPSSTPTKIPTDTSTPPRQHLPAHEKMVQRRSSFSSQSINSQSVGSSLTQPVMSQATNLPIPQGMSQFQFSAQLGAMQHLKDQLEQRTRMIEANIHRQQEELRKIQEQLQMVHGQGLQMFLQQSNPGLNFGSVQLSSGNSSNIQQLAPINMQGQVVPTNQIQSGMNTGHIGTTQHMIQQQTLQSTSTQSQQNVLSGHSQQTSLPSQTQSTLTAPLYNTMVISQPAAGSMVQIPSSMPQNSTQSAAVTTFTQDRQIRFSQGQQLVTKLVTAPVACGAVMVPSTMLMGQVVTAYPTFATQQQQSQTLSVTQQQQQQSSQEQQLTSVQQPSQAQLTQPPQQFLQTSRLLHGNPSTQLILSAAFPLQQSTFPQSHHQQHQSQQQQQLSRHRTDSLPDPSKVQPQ

[4] = target: YFP C-terminus (YC)-tagged hBMAL1b (human) (UniProt O00327); assay: as above
[5] = target: Myc-tagged hBMAL1a (human) (UniProt O00327); assay: co-IP; called a pull down assay; Myc-tagged hBMAL1a or hBMAL1b expressed in cells, blot for hCLOCK (Supplementary Fig. S3)
[6] = target: Myc-tagged hBMAL1b (human) (UniProt O00327); assay: as above
[7] = target: Myc-tagged hBMAL1b (human) (UniProt O00327); assay: co-IP; immunoprecipitation from HeLa lysates: Myc-tagged hBMAL1b as bait, endogenous hCLOCK on the blot, with increasing co-expression of Flag-tagged hBMAL1a; IP buffer 50 mM HEPES pH 7.4, 150 mM NaCl, 1% NP-40, 0.5% Na-deoxycholate, 4 °C

Molecule: Flag-tagged hBMAL1a (from UniProt O00327-1 1-583)
- binding [1]: binds

Molecule: N-terminal CFP (CN)-tagged hBMAL1b (from UniProt O00327 1-626)
- binding [2]: binds

Molecule: YFP C-terminus (YC)-tagged hBMAL1a (from UniProt O00327-1 1-583)
- binding [3]: binds

Molecule: YFP C-terminus (YC)-tagged hBMAL1b (from UniProt O00327 1-626)
- binding [3]: binds

Molecule: YN-Flag-fused hBMAL1a (from UniProt O00327-1 1-583)
- binding [4]: binds
- binding [2]: binds

B1: endogenous hCLOCK (protein, UniProt O15516 1-846)
chain: MLFTVSCSKMSSIVDRDDSSIFDGLVEEDDKDKAKRVSRNKSEKKRRDQFNVLIKELGSMLPGNARKMDKSTVLQKSIDFLRKHKEITAQSDASEIRQDWKPTFLSNEEFTQLMLEALDGFFLAIMTDGSIIYVSESVTSLLEHLPSDLVDQSIFNFIPEGEHSEVYKILSTHLLESDSLTPEYLKSKNQLEFCCHMLRGTIDPKEPSTYEYVKFIGNFKSLNSVSSSAHNGFEGTIQRTHRPSYEDRVCFVATVRLATPQFIKEMCTVEEPNEEFTSRHSLEWKFLFLDHRAPPIIGYLPFEVLGTSGYDYYHVDDLENLAKCHEHLMQYGKGKSCYYRFLTKGQQWIWLQTHYYITYHQWNSRPEFIVCTHTVVSYAEVRAERRRELGIEESLPETAADKSQDSGSDNRINTVSLKEALERFDHSPTPSASSRSSRKSSHTAVSDPSSTPTKIPTDTSTPPRQHLPAHEKMVQRRSSFSSQSINSQSVGSSLTQPVMSQATNLPIPQGMSQFQFSAQLGAMQHLKDQLEQRTRMIEANIHRQQEELRKIQEQLQMVHGQGLQMFLQQSNPGLNFGSVQLSSGNSSNIQQLAPINMQGQVVPTNQIQSGMNTGHIGTTQHMIQQQTLQSTSTQSQQNVLSGHSQQTSLPSQTQSTLTAPLYNTMVISQPAAGSMVQIPSSMPQNSTQSAAVTTFTQDRQIRFSQGQQLVTKLVTAPVACGAVMVPSTMLMGQVVTAYPTFATQQQQSQTLSVTQQQQQQSSQEQQLTSVQQPSQAQLTQPPQQFLQTSRLLHGNPSTQLILSAAFPLQQSTFPQSHHQQHQSQQQQQLSRHRTDSLPDPSKVQPQ
- binding [5]: binds
- binding [6]: binds
- binding [7]: binds
